Experimental data from the supplement of paper PMC6411743.
± gives the standard deviation of the averaged measurements. Only a part is listed here, and it is no random draw. Most values lie at the level of the controls, where differences are scatter.

Amino acid sequences for entries named in this document (tags omitted). A change or cut given only in a name is not applied to a line headed by its entry.
UniProt Q7L0Y3: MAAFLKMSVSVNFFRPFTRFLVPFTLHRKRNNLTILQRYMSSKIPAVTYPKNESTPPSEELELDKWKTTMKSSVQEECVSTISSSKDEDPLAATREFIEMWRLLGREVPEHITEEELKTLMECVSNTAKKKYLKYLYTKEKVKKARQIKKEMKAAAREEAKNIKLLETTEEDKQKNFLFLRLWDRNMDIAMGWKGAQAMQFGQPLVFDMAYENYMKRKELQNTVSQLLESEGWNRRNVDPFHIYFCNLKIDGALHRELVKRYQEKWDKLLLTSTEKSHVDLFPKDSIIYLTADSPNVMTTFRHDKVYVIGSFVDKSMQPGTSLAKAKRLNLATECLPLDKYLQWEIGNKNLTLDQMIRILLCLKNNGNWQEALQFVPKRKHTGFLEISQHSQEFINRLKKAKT
UniProt Q6KCM7: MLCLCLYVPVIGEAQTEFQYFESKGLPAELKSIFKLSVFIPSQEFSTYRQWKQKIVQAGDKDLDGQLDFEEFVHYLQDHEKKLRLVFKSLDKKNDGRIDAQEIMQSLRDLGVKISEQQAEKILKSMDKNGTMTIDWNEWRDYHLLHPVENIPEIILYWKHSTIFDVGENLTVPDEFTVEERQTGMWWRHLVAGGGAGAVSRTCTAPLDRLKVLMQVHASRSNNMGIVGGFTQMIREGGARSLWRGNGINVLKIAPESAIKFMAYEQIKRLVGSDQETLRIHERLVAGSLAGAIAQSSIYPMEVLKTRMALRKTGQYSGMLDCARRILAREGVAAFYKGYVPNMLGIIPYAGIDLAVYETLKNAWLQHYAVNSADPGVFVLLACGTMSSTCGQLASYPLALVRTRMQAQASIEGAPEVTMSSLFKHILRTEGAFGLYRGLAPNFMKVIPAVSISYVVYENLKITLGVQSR
UniProt Q68D85: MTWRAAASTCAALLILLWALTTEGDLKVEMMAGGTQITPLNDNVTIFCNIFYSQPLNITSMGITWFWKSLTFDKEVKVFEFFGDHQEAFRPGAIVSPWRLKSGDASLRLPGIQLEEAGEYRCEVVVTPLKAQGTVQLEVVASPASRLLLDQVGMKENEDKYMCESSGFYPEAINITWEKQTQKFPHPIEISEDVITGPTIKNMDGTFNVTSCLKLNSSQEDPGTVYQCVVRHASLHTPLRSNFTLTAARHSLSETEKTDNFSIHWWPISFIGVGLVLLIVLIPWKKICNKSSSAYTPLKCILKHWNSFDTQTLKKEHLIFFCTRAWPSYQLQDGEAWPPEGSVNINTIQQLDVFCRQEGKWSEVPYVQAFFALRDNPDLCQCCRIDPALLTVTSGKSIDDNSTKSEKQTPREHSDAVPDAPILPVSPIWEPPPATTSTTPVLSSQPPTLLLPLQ
UniProt Q6NUK1: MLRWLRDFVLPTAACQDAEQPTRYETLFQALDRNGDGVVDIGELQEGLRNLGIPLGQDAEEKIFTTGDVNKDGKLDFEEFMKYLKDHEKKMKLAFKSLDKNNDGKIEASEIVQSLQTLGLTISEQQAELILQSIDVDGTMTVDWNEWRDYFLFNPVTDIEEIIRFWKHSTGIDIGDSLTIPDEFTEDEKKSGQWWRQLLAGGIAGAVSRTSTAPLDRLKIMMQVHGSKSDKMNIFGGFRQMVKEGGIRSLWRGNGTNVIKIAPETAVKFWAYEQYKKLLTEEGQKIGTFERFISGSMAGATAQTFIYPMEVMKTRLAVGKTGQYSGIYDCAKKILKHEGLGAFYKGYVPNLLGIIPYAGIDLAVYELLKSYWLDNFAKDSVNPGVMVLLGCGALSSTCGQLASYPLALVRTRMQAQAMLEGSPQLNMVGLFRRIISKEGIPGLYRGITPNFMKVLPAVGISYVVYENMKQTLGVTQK
UniProt Q69YI7: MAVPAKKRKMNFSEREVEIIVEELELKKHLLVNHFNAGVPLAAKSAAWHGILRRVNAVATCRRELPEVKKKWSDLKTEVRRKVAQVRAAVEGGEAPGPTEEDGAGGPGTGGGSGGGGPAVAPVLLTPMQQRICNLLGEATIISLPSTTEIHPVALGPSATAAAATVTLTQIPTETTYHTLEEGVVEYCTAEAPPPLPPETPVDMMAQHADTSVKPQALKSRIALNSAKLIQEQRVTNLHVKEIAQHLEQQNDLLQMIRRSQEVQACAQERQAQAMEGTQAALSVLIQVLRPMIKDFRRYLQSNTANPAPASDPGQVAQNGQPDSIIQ
UniProt Q7L592: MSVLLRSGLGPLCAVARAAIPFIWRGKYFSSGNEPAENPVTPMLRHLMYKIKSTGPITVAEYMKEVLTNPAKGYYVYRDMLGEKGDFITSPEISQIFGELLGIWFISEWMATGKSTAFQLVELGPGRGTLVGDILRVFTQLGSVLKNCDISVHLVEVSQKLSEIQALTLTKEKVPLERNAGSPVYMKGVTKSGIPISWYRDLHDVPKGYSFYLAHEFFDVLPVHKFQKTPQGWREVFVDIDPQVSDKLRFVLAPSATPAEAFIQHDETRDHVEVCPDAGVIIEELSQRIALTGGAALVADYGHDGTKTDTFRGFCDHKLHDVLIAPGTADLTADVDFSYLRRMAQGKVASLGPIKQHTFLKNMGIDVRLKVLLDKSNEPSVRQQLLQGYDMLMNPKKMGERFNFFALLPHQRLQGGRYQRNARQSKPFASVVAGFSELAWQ
UniProt Q6P1K2: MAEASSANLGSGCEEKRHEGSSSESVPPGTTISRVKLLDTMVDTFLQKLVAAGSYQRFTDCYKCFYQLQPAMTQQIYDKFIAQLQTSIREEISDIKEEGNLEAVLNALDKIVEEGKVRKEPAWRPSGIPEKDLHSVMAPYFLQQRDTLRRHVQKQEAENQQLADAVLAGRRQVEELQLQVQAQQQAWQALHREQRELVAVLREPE
UniProt Q66K14, whole entry: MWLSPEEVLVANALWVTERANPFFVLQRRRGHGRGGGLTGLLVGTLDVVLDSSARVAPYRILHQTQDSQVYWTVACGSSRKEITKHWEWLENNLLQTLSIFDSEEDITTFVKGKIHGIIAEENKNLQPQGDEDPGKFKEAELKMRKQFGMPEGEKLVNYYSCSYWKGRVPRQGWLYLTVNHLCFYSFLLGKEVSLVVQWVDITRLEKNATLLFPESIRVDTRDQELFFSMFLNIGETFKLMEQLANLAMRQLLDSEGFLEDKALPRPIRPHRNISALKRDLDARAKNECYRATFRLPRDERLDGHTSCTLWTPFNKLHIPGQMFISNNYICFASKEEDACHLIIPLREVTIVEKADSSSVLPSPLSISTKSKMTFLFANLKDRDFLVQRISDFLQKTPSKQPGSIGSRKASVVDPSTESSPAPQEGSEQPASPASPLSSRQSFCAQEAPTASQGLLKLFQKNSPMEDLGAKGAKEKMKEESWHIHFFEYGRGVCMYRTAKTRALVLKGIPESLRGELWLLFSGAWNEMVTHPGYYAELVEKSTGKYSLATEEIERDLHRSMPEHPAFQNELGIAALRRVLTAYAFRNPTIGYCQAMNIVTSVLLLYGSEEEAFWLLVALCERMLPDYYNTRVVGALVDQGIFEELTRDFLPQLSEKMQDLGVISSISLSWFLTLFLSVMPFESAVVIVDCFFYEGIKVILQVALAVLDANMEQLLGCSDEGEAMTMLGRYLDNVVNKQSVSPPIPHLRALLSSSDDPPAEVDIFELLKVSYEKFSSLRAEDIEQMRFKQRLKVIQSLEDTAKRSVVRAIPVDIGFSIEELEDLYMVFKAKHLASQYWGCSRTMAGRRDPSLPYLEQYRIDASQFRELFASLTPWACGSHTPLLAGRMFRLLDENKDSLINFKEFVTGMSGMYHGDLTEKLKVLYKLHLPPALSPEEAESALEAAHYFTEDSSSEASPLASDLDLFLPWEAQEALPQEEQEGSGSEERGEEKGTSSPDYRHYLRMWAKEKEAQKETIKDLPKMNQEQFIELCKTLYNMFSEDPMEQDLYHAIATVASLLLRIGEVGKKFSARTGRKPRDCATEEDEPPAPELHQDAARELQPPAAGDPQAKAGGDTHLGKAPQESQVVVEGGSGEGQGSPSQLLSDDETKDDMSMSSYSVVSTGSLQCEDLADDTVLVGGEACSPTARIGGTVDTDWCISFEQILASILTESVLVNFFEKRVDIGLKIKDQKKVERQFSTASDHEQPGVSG
UniProt Q6PI78: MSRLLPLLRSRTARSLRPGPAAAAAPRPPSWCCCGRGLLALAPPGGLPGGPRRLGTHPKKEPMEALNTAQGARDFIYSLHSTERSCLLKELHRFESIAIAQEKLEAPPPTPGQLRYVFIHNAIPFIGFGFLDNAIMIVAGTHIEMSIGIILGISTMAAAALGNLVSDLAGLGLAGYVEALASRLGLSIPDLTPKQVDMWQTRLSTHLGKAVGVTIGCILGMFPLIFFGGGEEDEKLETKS
UniProt Q6XZF7: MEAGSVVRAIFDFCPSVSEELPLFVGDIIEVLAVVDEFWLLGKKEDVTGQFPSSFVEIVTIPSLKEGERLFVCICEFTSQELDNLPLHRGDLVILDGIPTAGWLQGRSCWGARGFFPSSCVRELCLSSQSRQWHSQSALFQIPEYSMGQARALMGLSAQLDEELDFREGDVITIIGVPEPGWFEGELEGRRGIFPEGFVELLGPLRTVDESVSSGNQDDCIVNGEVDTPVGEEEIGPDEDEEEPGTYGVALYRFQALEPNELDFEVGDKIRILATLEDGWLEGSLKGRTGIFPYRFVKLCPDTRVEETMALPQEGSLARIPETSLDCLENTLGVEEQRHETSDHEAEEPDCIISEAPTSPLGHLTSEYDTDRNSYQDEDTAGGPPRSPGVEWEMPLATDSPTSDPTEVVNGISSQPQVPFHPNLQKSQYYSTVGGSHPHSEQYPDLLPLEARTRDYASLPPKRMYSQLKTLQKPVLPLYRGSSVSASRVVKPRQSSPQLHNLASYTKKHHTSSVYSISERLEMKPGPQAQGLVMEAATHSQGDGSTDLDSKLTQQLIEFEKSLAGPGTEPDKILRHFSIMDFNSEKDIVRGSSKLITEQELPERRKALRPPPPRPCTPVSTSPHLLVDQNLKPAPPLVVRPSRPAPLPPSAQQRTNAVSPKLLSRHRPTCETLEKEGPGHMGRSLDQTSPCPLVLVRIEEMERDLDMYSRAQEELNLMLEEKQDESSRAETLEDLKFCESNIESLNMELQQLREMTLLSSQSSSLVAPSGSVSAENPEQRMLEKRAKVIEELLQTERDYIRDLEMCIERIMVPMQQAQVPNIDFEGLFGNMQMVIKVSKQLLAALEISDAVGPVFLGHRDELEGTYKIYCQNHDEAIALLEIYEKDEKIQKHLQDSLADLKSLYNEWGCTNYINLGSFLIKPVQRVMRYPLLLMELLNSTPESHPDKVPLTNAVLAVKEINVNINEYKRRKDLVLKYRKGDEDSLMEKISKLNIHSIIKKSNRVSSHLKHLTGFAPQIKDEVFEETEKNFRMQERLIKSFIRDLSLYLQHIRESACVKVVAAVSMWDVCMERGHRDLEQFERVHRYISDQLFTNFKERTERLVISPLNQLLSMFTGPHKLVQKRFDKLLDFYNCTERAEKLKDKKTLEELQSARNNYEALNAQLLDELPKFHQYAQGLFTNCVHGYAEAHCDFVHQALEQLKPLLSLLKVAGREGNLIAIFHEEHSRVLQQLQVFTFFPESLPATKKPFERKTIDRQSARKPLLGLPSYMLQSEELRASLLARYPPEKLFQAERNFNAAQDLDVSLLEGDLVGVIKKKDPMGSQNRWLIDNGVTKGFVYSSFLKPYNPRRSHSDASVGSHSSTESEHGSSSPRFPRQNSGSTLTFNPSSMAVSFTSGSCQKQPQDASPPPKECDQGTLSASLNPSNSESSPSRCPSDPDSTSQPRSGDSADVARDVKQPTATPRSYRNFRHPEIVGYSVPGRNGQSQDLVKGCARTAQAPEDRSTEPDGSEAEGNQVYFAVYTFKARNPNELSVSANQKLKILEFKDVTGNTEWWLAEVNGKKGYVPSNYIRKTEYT
UniProt Q6PI48: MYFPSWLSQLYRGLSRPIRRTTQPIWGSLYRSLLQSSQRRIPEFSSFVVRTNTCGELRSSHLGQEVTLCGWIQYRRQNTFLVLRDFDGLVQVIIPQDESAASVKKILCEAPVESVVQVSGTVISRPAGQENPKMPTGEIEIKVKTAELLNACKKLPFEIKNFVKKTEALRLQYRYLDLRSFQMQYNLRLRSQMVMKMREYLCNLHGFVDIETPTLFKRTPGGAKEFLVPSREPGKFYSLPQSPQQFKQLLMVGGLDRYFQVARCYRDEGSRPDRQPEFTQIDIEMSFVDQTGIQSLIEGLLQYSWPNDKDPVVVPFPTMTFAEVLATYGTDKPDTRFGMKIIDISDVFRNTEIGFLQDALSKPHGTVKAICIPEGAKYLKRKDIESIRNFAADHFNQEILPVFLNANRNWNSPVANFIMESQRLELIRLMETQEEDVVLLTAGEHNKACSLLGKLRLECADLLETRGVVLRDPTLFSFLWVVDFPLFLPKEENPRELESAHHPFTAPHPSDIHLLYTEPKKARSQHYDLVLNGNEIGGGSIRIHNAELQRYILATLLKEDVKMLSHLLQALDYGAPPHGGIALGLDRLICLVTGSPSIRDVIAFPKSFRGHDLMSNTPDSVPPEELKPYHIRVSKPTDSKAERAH

Compound: Nc1ncnc2c1ncn2[C@@H]1O[C@H](COP(=O)(O)OP(=O)(O)NP(=O)(O)O)[C@@H](O)[C@H]1O [adenylyl imidodiphosphate]
Experiment: NP40-soluble protein abundance relative to vehicle (solubility fold change) (ratio); higher = more soluble protein in presence of AMP-PNP
Procedure, shortened: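 Eight concentrations, 0.1 to 10 mM, were tested on Jurkat crude lysate for 10 min at room temperature and then 3 min at 37 °C, in three independent experiments. The lysate was solubilised with 0.8% NP40 and benzonase, ultracentrifuged, and the supernatant TMT-labelled for LC-MS/MS. Each value is the fold change against the detergent-processed vehicle in its own replicate, from vsn-normalised intensities.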

Target	NP40-soluble protein abundance (concentration: 0.1mM)	NP40-soluble protein abundance (concentration: 0.5mM)
RNF20 (UniProt Q5VTR2)	0.991 ± 0.031	1.01 ± 0.036
UniProt Q659A1	0.999 ± 0.012	1.01 ± 0.037
UniProt Q7Z5J4 and related entries	0.989 ± 0.029	0.997 ± 0.014
UniProt Q7L0Y3	0.997 ± 0.024	1.01 ± 0.015
UniProt Q68DK2 and related entries	1.027 ± 0.0066	1.01 ± 0.031
UniProt Q6KCM7 and related entries	1.069 ± 0.0042	1.07 ± 0.046
UniProt Q7Z5K2-2|Q7Z5K2-3|Q7Z5K2	0.975 ± 0.012	1 ± 0.039
UniProt Q712K3	0.999 ± 0.046	1.04 ± 0.094
NCR3LG1 (UniProt Q68D85)	0.991 ± 0.014	1.011 ± 0.004
UniProt Q5VST6	1.03 ± 0.088	1.02 ± 0.072
TWF2 (UniProt Q6IBS0)	0.98 ± 0.033	1 ± 0.072
UniProt Q6P2P2	1.01 ± 0.015	1.03 ± 0.024
KCTD9 (UniProt Q7L273)	0.989 ± 0.02	1.01 ± 0.033
SLC25A24 (UniProt Q6NUK1)	0.986 ± 0.015	1.01 ± 0.048
UniProt Q6PCB8 and related entries	0.978 ± 0.021	1.02 ± 0.049
LARP1 (UniProt Q6PKG0)	0.986 ± 0.033	0.996 ± 0.045
UniProt Q7Z3B4 and related entries	1.01 ± 0.022	0.983 ± 0.028
SLC30A9 (UniProt Q6PML9)	1.02 ± 0.035	0.9969 ± 0.0082
NAIF1 (UniProt Q69YI7)	0.9714 ± 0.0026	0.999 ± 0.019
UniProt Q6F5E8 and related entries	1.02 ± 0.058	0.993 ± 0.011
UniProt Q68EM7-2|Q68EM7-3|Q68EM7	0.99 ± 0.033	1.01 ± 0.036
UniProt Q7L592	0.988 ± 0.014	0.996 ± 0.013
EPM2AIP1 (UniProt Q7L775)	0.976 ± 0.02	0.986 ± 0.023
PMF1 (UniProt Q6P1K2)	0.971 ± 0.068	0.963 ± 0.064

Target	NP40-soluble protein abundance (concentration: 0.1mM)	NP40-soluble protein abundance (concentration: 0.5mM)
UniProt Q6PII5-2|B4DED4	0.982 ± 0.028	0.986 ± 0.021
UniProt Q6VMQ6 and related entries	0.981 ± 0.019	1.02 ± 0.038
UniProt Q6NXT6 and related entries	0.9395 ± 0.0023	0.974 ± 0.045
UniProt Q68E01 and related entries	0.983 ± 0.021	0.999 ± 0.038
UniProt Q66K14-2|Q66K14	0.9742 ± 0.0056	0.9591 ± 0.0063
UniProt Q6PJG6	0.969 ± 0.087	0.983 ± 0.046
SLC27A4 (UniProt Q6P1M0)	1.01 ± 0.016	0.9959 ± 0.0083
TMEM65 (UniProt Q6PI78)	0.948 ± 0.018	0.982 ± 0.023
AAGAB (UniProt Q6PD74)	1.03 ± 0.017	1.04 ± 0.034
UniProt Q6P1J9	1 ± 0.025	0.982 ± 0.031
UniProt Q7Z3E2	0.984 ± 0.041	0.978 ± 0.021
UniProt Q66K74 and related entries	1.005 ± 0.0053	1.03 ± 0.023
DNMBP (UniProt Q6XZF7)	1.02 ± 0.022	1.02 ± 0.0081
REEP3 (UniProt Q6NUK4)	0.988 ± 0.029	1 ± 0.048
UniProt Q6P6C2 and related entries	1.04 ± 0.059	1.04 ± 0.067
WDR73 (UniProt Q6P4I2)	0.996 ± 0.018	0.963 ± 0.03
UniProt Q6FI81 and related entries	0.966 ± 0.07	1.01 ± 0.063
DARS2 (UniProt Q6PI48)	1.01 ± 0.052	0.968 ± 0.082
ERAP2 (UniProt Q6P179)	1 ± 0.057	1.01 ± 0.062
UniProt Q6P1X6 and related entries	1 ± 0.016	1.03 ± 0.023
UniProt Q6ZMG9 and related entries	1 ± 0.038	1.02 ± 0.035
RINT1 (UniProt Q6NUQ1)	0.958 ± 0.038	0.9988 ± 0.0029
CEP350 (UniProt Q5VT06)	0.9721 ± 0.009	0.969 ± 0.018
UniProt Q7Z4H3 and related entries	0.978 ± 0.07	1.02 ± 0.092

Rewritten with each value named: part of the list above
UniProt Q6KCM7 and related entries
  NP40-soluble protein abundance (concentration: 0.1mM): 1.069 ± 0.0042; NP40-soluble protein abundance (concentration: 0.5mM): 1.07 ± 0.046
PMF1 (UniProt Q6P1K2)
  NP40-soluble protein abundance (concentration: 0.1mM): 0.971 ± 0.068; NP40-soluble protein abundance (concentration: 0.5mM): 0.963 ± 0.064
